Assay results reported in the supplement of paper PMC11438910.
The list shows a part of the results. The signal is at background level for most entries.

Experiments:
Test in all cases: fluorescence intensity of antibody binding to polysaccharide-coupled beads; higher = stronger binding
[1] = target: pneumococcal polysaccharide Pn47A
[2] = target: pneumococcal polysaccharide Pn47F
[3] = target: pneumococcal polysaccharide Pn48
[4] = target: pneumococcal polysaccharide Pn5
[5] = target: pneumococcal polysaccharide Pn6A
[6] = target: pneumococcal polysaccharide Pn6B
[7] = target: pneumococcal polysaccharide Pn6C
[8] = target: pneumococcal polysaccharide Pn6D
[9] = target: pneumococcal polysaccharide Pn7A
[10] = target: pneumococcal polysaccharide Pn7B
[11] = target: pneumococcal polysaccharide Pn7C
[12] = target: pneumococcal polysaccharide Pn7F
[13] = target: pneumococcal polysaccharide Pn8
[14] = target: pneumococcal polysaccharide Pn9A
[15] = target: pneumococcal polysaccharide Pn9L
[16] = target: pneumococcal polysaccharide Pn9N
[17] = target: pneumococcal polysaccharide Pn9V
[18] = target: pneumococcal polysaccharide C-Poly-1
[19] = target: pneumococcal polysaccharide C-Poly-2
[20] = target: pneumococcal polysaccharide Pn1
[21] = target: pneumococcal polysaccharide Pn10A
[22] = antibody concentration 2337.65 ng/mL
[23] = antibody concentration 12500 ng/mL
[24] = antibody concentration 0.1 ng/mL
[25] = antibody concentration 0.534724 ng/mL
[26] = antibody concentration 2.8593 ng/mL
[27] = antibody concentration 15.2894 ng/mL
[28] = antibody concentration 81.7561 ng/mL
[29] = antibody concentration 437.17 ng/mL

B1: 4-99.2 (protein)
chain 1: QVQLQESGPGLVKPSETLSLTCAVSGYSIRSAYEWGWIRQPPGKGLEYIGYISGESGNTYYSPSLKSRVTISRDTSKNQFSLRLSSVTAADSAVYYCARRGQLIGFDFWGQGVLVTVSS
chain 2: QAAPTQPPSVSGSPGQSVTISCTGTSSDIGYYNAVSWYQHLPGKAPKLMIYEVSKRPSGVSDRFSGSKSGNTASLTISGLQAEDEADYYCSSYAGSNTYIFGAGTRLTVL
- fluorescence intensity [1, 22]: 16 MFI
- fluorescence intensity [1, 23]: 20.5 MFI
- fluorescence intensity [2, 24]: 11.5 MFI
- fluorescence intensity [2, 25]: 11.5 MFI
- fluorescence intensity [2, 26]: 12 MFI
- fluorescence intensity [2, 27]: 11.5 MFI
- fluorescence intensity [2, 28]: 11.5 MFI
- fluorescence intensity [2, 29]: 12 MFI
- fluorescence intensity [2, 22]: 13 MFI
- fluorescence intensity [2, 23]: 25.5 MFI
- fluorescence intensity [3, 24]: 20 MFI
- fluorescence intensity [3, 25]: 19.5 MFI
- fluorescence intensity [3, 26]: 19 MFI
- fluorescence intensity [3, 27]: 19.5 MFI
- fluorescence intensity [3, 28]: 20 MFI
- fluorescence intensity [3, 29]: 22 MFI
- fluorescence intensity [3, 22]: 22.5 MFI
- fluorescence intensity [3, 23]: 39.5 MFI
- fluorescence intensity [4, 24]: 8.5 MFI
- fluorescence intensity [4, 25]: 9 MFI
- fluorescence intensity [4, 26]: 8 MFI
- fluorescence intensity [4, 27]: 8.5 MFI
- fluorescence intensity [4, 28]: 7.5 MFI
- fluorescence intensity [4, 29]: 9.5 MFI
- fluorescence intensity [4, 22]: 11.5 MFI
- fluorescence intensity [4, 23]: 29.5 MFI
- fluorescence intensity [5, 24]: 19.5 MFI
- fluorescence intensity [5, 25]: 19.5 MFI
- fluorescence intensity [5, 26]: 20.8 MFI
- fluorescence intensity [5, 27]: 22 MFI
- fluorescence intensity [5, 28]: 19.5 MFI
- fluorescence intensity [5, 29]: 22.5 MFI
- fluorescence intensity [5, 22]: 23 MFI
- fluorescence intensity [5, 23]: 31 MFI
- fluorescence intensity [6, 24]: 18.5 MFI
- fluorescence intensity [6, 25]: 18.8 MFI
- fluorescence intensity [6, 26]: 18.8 MFI
- fluorescence intensity [6, 27]: 19 MFI
- fluorescence intensity [6, 28]: 18.2 MFI
- fluorescence intensity [6, 29]: 20 MFI
- fluorescence intensity [6, 22]: 21.2 MFI
- fluorescence intensity [6, 23]: 30.5 MFI
- fluorescence intensity [7, 24]: 17.2 MFI
- fluorescence intensity [7, 25]: 28.8 MFI
- fluorescence intensity [7, 26]: 46 MFI
- fluorescence intensity [7, 27]: 100 MFI
- fluorescence intensity [7, 28]: 104 MFI
- fluorescence intensity [7, 29]: 94 MFI
- fluorescence intensity [7, 22]: 108 MFI
- fluorescence intensity [7, 23]: 72.8 MFI
- fluorescence intensity [8, 24]: 17 MFI
- fluorescence intensity [8, 25]: 16.2 MFI
- fluorescence intensity [8, 26]: 16.5 MFI
- fluorescence intensity [8, 27]: 16.8 MFI
- fluorescence intensity [8, 28]: 14 MFI
- fluorescence intensity [8, 29]: 17 MFI
- fluorescence intensity [8, 22]: 19 MFI
- fluorescence intensity [8, 23]: 23.5 MFI
- fluorescence intensity [9, 24]: 21 MFI
- fluorescence intensity [9, 25]: 18 MFI
- fluorescence intensity [9, 26]: 17.5 MFI
- fluorescence intensity [9, 27]: 19.5 MFI
- fluorescence intensity [9, 28]: 21.5 MFI
- fluorescence intensity [9, 29]: 23 MFI
- fluorescence intensity [9, 22]: 27.2 MFI
- fluorescence intensity [9, 23]: 88.5 MFI
- fluorescence intensity [10, 24]: 15 MFI
- fluorescence intensity [10, 25]: 16 MFI
- fluorescence intensity [10, 26]: 16.8 MFI
- fluorescence intensity [10, 27]: 17.5 MFI
- fluorescence intensity [10, 28]: 16.5 MFI
- fluorescence intensity [10, 29]: 16 MFI
- fluorescence intensity [10, 22]: 18 MFI
- fluorescence intensity [10, 23]: 32.5 MFI
- fluorescence intensity [11, 24]: 16 MFI
- fluorescence intensity [11, 25]: 14.5 MFI
- fluorescence intensity [11, 26]: 16 MFI
- fluorescence intensity [11, 27]: 17 MFI
- fluorescence intensity [11, 28]: 16.5 MFI
- fluorescence intensity [11, 29]: 17 MFI
- fluorescence intensity [11, 22]: 18.5 MFI
- fluorescence intensity [11, 23]: 27.8 MFI
- fluorescence intensity [12, 24]: 13 MFI
- fluorescence intensity [12, 25]: 14 MFI
- fluorescence intensity [12, 26]: 14.5 MFI
- fluorescence intensity [12, 27]: 14 MFI
- fluorescence intensity [12, 28]: 14.5 MFI
- fluorescence intensity [12, 29]: 15.5 MFI
- fluorescence intensity [12, 22]: 19.5 MFI
- fluorescence intensity [12, 23]: 58 MFI
- fluorescence intensity [13, 24]: 19.5 MFI
- fluorescence intensity [13, 25]: 20.5 MFI
- fluorescence intensity [13, 26]: 19.5 MFI
- fluorescence intensity [13, 27]: 19.5 MFI
- fluorescence intensity [13, 28]: 21.5 MFI
- fluorescence intensity [13, 29]: 23.5 MFI
- fluorescence intensity [13, 22]: 25.5 MFI
- fluorescence intensity [13, 23]: 38 MFI
- fluorescence intensity [14, 24]: 19 MFI
- fluorescence intensity [14, 25]: 19 MFI
- fluorescence intensity [14, 26]: 18.5 MFI
- fluorescence intensity [14, 27]: 21 MFI
- fluorescence intensity [14, 28]: 21 MFI
- fluorescence intensity [14, 29]: 17.8 MFI
- fluorescence intensity [14, 22]: 22.8 MFI
- fluorescence intensity [14, 23]: 34 MFI
- fluorescence intensity [15, 24]: 17.5 MFI
- fluorescence intensity [15, 25]: 16 MFI
- fluorescence intensity [15, 26]: 16.5 MFI
- fluorescence intensity [15, 27]: 17.2 MFI
- fluorescence intensity [15, 28]: 18 MFI
- fluorescence intensity [15, 29]: 19.2 MFI
- fluorescence intensity [15, 22]: 18 MFI
- fluorescence intensity [15, 23]: 27 MFI
- fluorescence intensity [16, 24]: 15.5 MFI
- fluorescence intensity [16, 25]: 14.5 MFI
- fluorescence intensity [16, 26]: 16.5 MFI
- fluorescence intensity [16, 27]: 14.5 MFI
- fluorescence intensity [16, 28]: 18.8 MFI
- fluorescence intensity [16, 29]: 16.5 MFI
- fluorescence intensity [16, 22]: 18 MFI
- fluorescence intensity [16, 23]: 28 MFI
- fluorescence intensity [17, 24]: 14 MFI
- fluorescence intensity [17, 25]: 13 MFI
- fluorescence intensity [17, 26]: 14 MFI
- fluorescence intensity [17, 27]: 14 MFI
- fluorescence intensity [17, 28]: 15 MFI
- fluorescence intensity [17, 29]: 15 MFI
- fluorescence intensity [17, 22]: 15.2 MFI
- fluorescence intensity [17, 23]: 22 MFI

B2: 4-99.3 (protein)
chain 1: QVQLQESGPGLVKPSETLSLTCAVSGYSISSGYYWGWIRQPPGKGLEYIGYISGSWGKSYYKPSLKSRVTISKDTSKNQFSLTLSSVTAADTAVYYCARRLEYVGFDVWGPGVLVTVSS
chain 2: QAAPTQPPSVSGSPGQSVTISCTGTSSDIGYYNAVSWYQQHPGKAPKLMIYEVSKRPSGVSDRFSGSKSGNTASLTISGLQAEDEADYYCSSYAGSNTYIFGSGTRLTVL
- fluorescence intensity [18, 24]: 23.5 MFI
- fluorescence intensity [18, 25]: 27 MFI
- fluorescence intensity [18, 26]: 25 MFI
- fluorescence intensity [18, 27]: 26.5 MFI
- fluorescence intensity [18, 28]: 27 MFI
- fluorescence intensity [18, 29]: 30.8 MFI
- fluorescence intensity [18, 22]: 63.5 MFI
- fluorescence intensity [18, 23]: 502 MFI
- fluorescence intensity [19, 24]: 20.2 MFI
- fluorescence intensity [19, 25]: 19.5 MFI
- fluorescence intensity [19, 26]: 20 MFI
- fluorescence intensity [19, 27]: 20 MFI
- fluorescence intensity [19, 28]: 21 MFI
- fluorescence intensity [19, 29]: 25 MFI
- fluorescence intensity [19, 22]: 51.8 MFI
- fluorescence intensity [19, 23]: 404 MFI
- fluorescence intensity [20, 24]: 13.5 MFI
- fluorescence intensity [20, 25]: 13.5 MFI
- fluorescence intensity [20, 26]: 13 MFI
- fluorescence intensity [20, 27]: 13 MFI
- fluorescence intensity [20, 28]: 13.5 MFI
- fluorescence intensity [20, 29]: 15.5 MFI
- fluorescence intensity [20, 22]: 20.5 MFI
- fluorescence intensity [20, 23]: 84.5 MFI
- fluorescence intensity [21, 24]: 25 MFI
- fluorescence intensity [21, 25]: 26 MFI
- fluorescence intensity [21, 26]: 25 MFI
- fluorescence intensity [21, 27]: 25.5 MFI
- fluorescence intensity [21, 28]: 26.5 MFI
- fluorescence intensity [21, 29]: 26 MFI
